Values of other authors in article PMC8764166, “Phenolic-Rich Plant Extracts With Antimicrobial Activity: An Alternative to Food Preservatives and Biocides?” (Frontiers in Microbiology, 2022).

System: S. aureus
Parameters: method as in Liu et al., 2021b
Settings: sub-inhibitory concentrations; ref Liu et al., 2021b

Compound: O=C(/C=C/c1ccc(O)cc1)OC1C(O)C(O)CC(O)(C(=O)O)C1O (stereo not drawn) [3-p-trans-coumaroyl-2-hydroxyquinic acid]
- differentially expressed genes: 935
- differentially expressed proteins: 438
